The name of at least one read-out is uncertain.
Target: hTRPV4 (Homo sapiens, UniProt Q9HBA0)
Assay: Patch clamp selectivity, hTRPV4 Agonist
Format: cell-based
Settings: no current activation; Inward (−80 mV); 3.2, 10, 32 micromolar

Protein sequences, listed by entry. Tags and fused reporters are not part of them.
UniProt Q9HBA0, whole entry: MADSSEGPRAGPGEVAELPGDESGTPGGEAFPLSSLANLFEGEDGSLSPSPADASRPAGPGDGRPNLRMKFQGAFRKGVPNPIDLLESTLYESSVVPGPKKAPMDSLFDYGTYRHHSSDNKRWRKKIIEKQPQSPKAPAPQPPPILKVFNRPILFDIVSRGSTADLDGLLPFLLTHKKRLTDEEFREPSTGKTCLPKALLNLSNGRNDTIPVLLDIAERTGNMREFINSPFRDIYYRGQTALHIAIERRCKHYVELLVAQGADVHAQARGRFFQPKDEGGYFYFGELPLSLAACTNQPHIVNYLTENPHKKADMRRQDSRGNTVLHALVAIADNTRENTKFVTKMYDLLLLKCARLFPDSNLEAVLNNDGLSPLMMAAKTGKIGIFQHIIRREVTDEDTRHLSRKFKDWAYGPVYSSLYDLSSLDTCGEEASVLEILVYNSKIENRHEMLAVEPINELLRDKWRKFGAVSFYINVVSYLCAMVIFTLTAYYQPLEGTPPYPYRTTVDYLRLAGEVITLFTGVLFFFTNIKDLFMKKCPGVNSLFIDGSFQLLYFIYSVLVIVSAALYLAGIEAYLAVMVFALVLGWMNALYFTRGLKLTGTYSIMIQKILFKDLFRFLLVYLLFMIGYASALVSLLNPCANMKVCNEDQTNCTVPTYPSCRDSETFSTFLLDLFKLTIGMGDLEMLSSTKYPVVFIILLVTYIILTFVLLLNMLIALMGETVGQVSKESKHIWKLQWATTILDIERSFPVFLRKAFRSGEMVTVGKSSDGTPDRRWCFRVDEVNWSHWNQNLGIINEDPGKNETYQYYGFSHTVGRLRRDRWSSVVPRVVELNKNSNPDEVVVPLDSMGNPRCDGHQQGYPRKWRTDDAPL

C[C@H]1CCCN1c1ncc(-c2cccc(NC(=O)Cn3cnc4c3c(=O)n(C)c(=O)n4C)n2)cn1 [Formula (Ia)]
IC50 (agonist test): No Effect
